Reference: publication PMC10789772
No constants are given. Whether binding was seen depends on the method and setting. In cells and extracts the contact can be indirect. Some binding calls cover weakened binding; strength is not graded here.

Sequences of proteins named here, by UniProt entry; tags and fusion partners are left off.
UniProt Q13838: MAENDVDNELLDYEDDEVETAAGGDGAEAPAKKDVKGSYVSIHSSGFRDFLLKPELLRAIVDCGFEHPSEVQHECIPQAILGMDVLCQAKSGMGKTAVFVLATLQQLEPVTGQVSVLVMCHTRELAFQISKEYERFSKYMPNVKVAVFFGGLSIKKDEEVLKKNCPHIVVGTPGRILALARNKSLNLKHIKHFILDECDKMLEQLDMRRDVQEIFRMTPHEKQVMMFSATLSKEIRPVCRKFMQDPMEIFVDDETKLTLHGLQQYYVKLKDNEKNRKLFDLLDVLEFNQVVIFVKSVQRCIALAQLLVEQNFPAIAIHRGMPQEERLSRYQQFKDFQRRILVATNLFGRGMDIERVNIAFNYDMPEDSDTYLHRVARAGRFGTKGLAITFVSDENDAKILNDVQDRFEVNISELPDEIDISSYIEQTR

Legend:
3×FLAG-UAP56 (human) [1] = biological target: 3×FLAG-UAP56 (human) (UniProt Q13838); assay: co-IP; FLAG immunoprecipitation from nuclear extract in the presence of ADP
3×FLAG-UAP56 (human) [2] = biological target: 3×FLAG-UAP56 (human) (UniProt Q13838); assay: co-IP; as a1, with ATP (500 μM), MgCl2 (3.2 mM) and creatine phosphate (20 mM) added to the nuclear extract, 30 min at 30 °C; immunoblot
3×FLAG-UAP56 (human) [3] = biological target: 3×FLAG-UAP56 (human) (UniProt Q13838); assay: co-IP; FLAG immunoprecipitation from nuclear extract in the presence of AMP-PNP (also with excess AMP-PNP for URH49)

binding (3×FLAG-UAP56 (human) [1]): binds
binding (3×FLAG-UAP56 (human) [2]): binds
binding (3×FLAG-UAP56 (human) [3]): binds
B1: CIP29 (protein, UniProt P82979 1-210)
chain: MATETVELHKLKLAELKQECLARGLETKGIKQDLIHRLQAYLEEHAEEEANEEDVLGDETEEEETKPIELPVKEEEPPEKTVDVAAEKKVVKITSEIPQTERMQKRAERFNVPVSLESKKAARAARFGISSVPTKGLSSDNKPMVNLDKLKERAQRFGLNVSSISRKSEDDEKLKKRKERFGIVTSSAGTGTTEDTEAKKRKRAERFGIA
